Reference: publication PMC7955049, “ADAR1 RNA editing enzyme regulates R-loop formation and genome stability at telomeres in cancer cells” (Nature Communications, 2021)
Results are given in words; binding and its absence hold for the method and conditions named. Binding seen in cells or lysates may run through a third protein. Some binding calls cover weakened binding; strength is not graded here. For part of these data: Where a sequence is shown, tags or fusion partners need not be part of it.

B1: RNase H2C (protein, UniProt Q8TDP1 1-164)
chain: MESGDEAAIERHRVHLRSATLRDAVPATLHLLPCEVAVDGPAPVGRFFTPAIRQGPEGLEVSFRGRCLRGEEVAVPPGLVGYVMVTEEKKVSMGKPDPLRDSGTDDQEEEPLERDFDRFIGATANFSRFTLWGLETIPGPDAKVRGALTWPSLAAAIHAQVPED
B2: RNase H1 (protein, UniProt O60930 1-286)
chain: MSWLLFLAHRVALAALPCRRGSRGFGMFYAVRRGRKTGVFLTWNECRAQVDRFPAARFKKFATEDEAWAFVRKSASPEVSEGHENQHGQESEAKASKRLREPLDGDGHESAEPYAKHMKPSVEPAPPVSRDTFSYMGDFVVVYTDGCCSSNGRRRPRAGIGVYWGPGHPLNVGIRLPGRQTNQRAEIHAACKAIEQAKTQNINKLVLYTDSMFTINGITNWVQGWKKNGWKTSAGKEVINKEDFVALERLTQGMDIQWMHVPGHSGFIGNEEADRLAREGAKQSED

Experiments:
FLAG-ADAR1p110-WT = biological target: T1, FLAG-ADAR1p110-WT (UniProt P55265-5 1-931); assay: co-IP; cells expressing the FLAG-tagged bait fixed with 0.3% formaldehyde, lysed in co-IP buffer (50 mM Tris-HCl pH 7.6, 150 mM NaCl, 1 mM EDTA, 1% NP-40, 0.5% sodium deoxycholate, 0.1% SDS, RNasin Plus) and sonicated; anti-FLAG M2 magnetic beads overnight at 4 °C; immunoblot; for Fig. 10c HEK293T cells unsynchronized or synchronized at M phase (thymidine-nocodazole)
T1 construct: ADAR1 (ADAR, DRADA), nuclear p110 isoform, wild type; also called F-ADAR1p110-WT; F-ADAR1p110; source: HEK293T, stably expressing (p3XFLAG-CMV-10 plasmid co-transfected with pPUR), in lysate of formaldehyde-fixed cells
T1 sequence (looked up): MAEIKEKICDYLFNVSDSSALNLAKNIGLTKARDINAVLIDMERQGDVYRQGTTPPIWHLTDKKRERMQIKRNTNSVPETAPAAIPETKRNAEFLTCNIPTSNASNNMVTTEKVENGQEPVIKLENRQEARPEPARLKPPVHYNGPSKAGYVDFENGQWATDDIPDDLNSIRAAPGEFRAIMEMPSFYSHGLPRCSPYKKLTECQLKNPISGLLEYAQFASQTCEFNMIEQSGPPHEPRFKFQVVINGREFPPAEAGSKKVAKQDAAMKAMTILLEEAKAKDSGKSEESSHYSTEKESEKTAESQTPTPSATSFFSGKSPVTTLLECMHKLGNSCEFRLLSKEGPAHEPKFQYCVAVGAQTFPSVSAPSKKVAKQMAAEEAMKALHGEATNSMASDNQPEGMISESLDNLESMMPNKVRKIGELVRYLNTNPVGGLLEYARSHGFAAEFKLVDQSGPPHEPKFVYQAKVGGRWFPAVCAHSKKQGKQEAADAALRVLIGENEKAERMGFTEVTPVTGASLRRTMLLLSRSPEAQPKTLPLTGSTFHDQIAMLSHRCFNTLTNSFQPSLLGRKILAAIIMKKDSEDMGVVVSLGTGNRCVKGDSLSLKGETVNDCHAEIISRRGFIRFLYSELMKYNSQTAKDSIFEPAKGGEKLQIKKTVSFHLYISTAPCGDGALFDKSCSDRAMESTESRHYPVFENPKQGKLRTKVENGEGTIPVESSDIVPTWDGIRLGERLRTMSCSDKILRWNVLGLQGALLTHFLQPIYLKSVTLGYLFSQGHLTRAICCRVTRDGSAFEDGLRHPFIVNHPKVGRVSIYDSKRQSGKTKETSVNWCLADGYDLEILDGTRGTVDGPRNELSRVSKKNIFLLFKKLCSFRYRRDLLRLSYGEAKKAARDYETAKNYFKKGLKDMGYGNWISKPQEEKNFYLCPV

FLAG-ADAR2-WT = FLAG-ADAR2-WT (UniProt P78563); assay: as above

Binder	binding (FLAG-ADAR1p110-WT)	binding (FLAG-ADAR2-WT)
B1	binds	–
B2	no binding	no binding
